# According to the supplement of paper PMC3741180, “A Novel High Throughput Biochemical Assay to Evaluate the HuR Protein-RNA Complex Formation” (PLoS ONE, 2013):
# Sequences of proteins named here, by UniProt entry; tags and fusion partners are left off.
# UniProt Q15717, whole entry: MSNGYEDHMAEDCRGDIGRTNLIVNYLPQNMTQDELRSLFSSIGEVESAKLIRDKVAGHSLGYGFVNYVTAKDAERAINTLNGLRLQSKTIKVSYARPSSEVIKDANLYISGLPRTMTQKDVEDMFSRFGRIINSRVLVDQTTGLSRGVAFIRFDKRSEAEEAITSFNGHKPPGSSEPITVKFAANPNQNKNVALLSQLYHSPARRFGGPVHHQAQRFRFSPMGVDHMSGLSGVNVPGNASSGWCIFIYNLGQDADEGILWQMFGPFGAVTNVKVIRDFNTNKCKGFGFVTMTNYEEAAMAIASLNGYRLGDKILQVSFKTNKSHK
# The list shows a part of the results. Single values are uncertain here, since repeats match poorly.
# Target: HuR (ELAVL1) - TNFalpha ARE RNA complex (UniProt Q15717)
# Experiment: AlphaScreen HuR-RNA complex signal Z-score relative to positive (Bi-TNF, DMSO) controls (Z-score (SD units of positive control)); higher = more complex signal
# Conditions: screen stage: primary screen; compound concentration: 25 nM
row,Structure (SMILES),AlphaScreen HuR-RNA complex signal Z-score
1,O=C(OCc1ccccc1)c1ccccc1,0.174
2,N=C(N)N/N=C/c1c(Cl)cccc1Cl,-0.836
3,OC(CCN1CCCCC1)(c1ccccc1)C1CCCCC1 (stereo not drawn),-1.07
4,Cc1cc(O)c(C=O)c2c1C(=O)Oc1c(COC(=O)/C=C/C(=O)O)c(O)c(C(=O)O)c(C)c1O2,-0.159
5,CN(C)CCOC(=O)COc1ccc(Cl)cc1,2.79
6,C[C@H]1C[C@@H]2[C@H]([C@@H](O)C[C@@]3(C)[C@H]2CC[C@]3(O)C(=O)COC(=O)CCC(=O)O)[C@@]2(C)C=CC(=O)C=C12,1.84
7,Nc1cc(-c2ccncc2)c[nH]c1=O,2.39
8,CC(N)C12CC3CC(CC(C3)C1)C2 (stereo not drawn),0.285
9,COC(=O)C(N)CS (stereo not drawn),2
10,O=C(CC(=O)c1ccccc1)c1ccccc1,1.49
11,Cn1c([N+](=O)[O-])cnc1COC(N)=O,1.2
12,NC(N)=O,-1.16
13,CN(C)[C@@H]1C(O)=C(C(N)=O)C(=O)[C@@]2(O)C(O)=C3C(=O)c4c(O)ccc(Cl)c4[C@@H](O)[C@H]3C[C@@H]12,-3.01
14,CC(Oc1ccccc1)C(=O)N[C@@H]1C(=O)N2[C@@H]1SC(C)(C)[C@@H]2C(=O)O (stereo partly drawn),-0.956
15,C[C@@H]1CC[C@@]2(OC1)O[C@H]1C[C@H]3[C@@H]4CC[C@@H]5C[C@@H](O)CC[C@]5(C)[C@H]4CC[C@]3(C)[C@H]1[C@@H]2C,1.5
16,N[C@@H](C(=O)N[C@@H]1C(=O)N2C(C(=O)O)=C(Cl)CS[C@H]12)c1ccccc1,-1.35
17,OCC(O)C(O)C(O)C(O)C(O)CO (stereo not drawn),1.73
18,COc1cc(O)c(C)c(O)c1,0.537
19,C[C@H](CCC(=O)O)[C@H]1CC[C@H]2[C@@H]3CC[C@@H]4CCCC[C@]4(C)[C@H]3CC[C@]12C,1.76
20,N=C(N)NC(=O)c1nc(Cl)c(N2CCCCCC2)nc1N,1.74
21,CCOC(=O)[C@H](CCc1ccccc1)N[C@@H](C)C(=O)N1CCC[C@H]1C(=O)O,1.48
22,CC(=O)N[C@@H](Cc1ccccc1)C(=O)O,1.15
23,Cn1nnnc1SCC1=C(C(=O)O)N2C(=O)[C@@H](NC(=O)[C@H](OC=O)c3ccccc3)[C@H]2SC1,-0.12
24,CN(C)CCCO[C@@H]1[C@H]2OC(C)(C)O[C@H]2O[C@@H]1[C@H](O)CO,-3.16
25,C[C@]12CC[C@@H]3c4ccc(O)cc4CC[C@H]3[C@@H]1C[C@@H](O)[C@@H]2O,-1.97
26,CCOc1ccc(C(=O)c2ccc(O)c(O)c2O)cc1,2.31
27,CCCCC(=O)O[C@]1(C(=O)CO)CC[C@H]2[C@@H]3CCC4=CC(=O)CC[C@]4(C)[C@H]3[C@@H](O)C[C@@]21C,1.65
28,CCc1cccc2c3c([nH]c12)C(CC)(CC(=O)O)OCC3 (stereo not drawn),0.518

# A second format for some results above:
row	Structure (SMILES)	AlphaScreen HuR-RNA complex signal Z-score
25	C[C@]12CC[C@@H]3c4ccc(O)cc4CC[C@H]3[C@@H]1C[C@@H](O)[C@@H]2O	-1.97
27	CCCCC(=O)O[C@]1(C(=O)CO)CC[C@H]2[C@@H]3CCC4=CC(=O)CC[C@]4(C)[C@H]3[C@@H](O)C[C@@]21C	1.65
